Measurements: PubChem BioAssay AID504842 (National Center for Advancing Translational Sciences (NCATS), 2011)
Screen size: about 330,000 compounds; about 100 (0.03%) were called active. The inconclusive results got no clear call from the source; some entries with a clear call stand among them for comparison. The call rests on the fitted dose curve; in most records, active means well fitted inhibition curve with a large enough effect; inconclusive means small, poorly fitted or top-dose-only effect; inactive means flat fitted curve, though single readings scatter. Potencies of inconclusive entries are doubtful fits and often do not repeat.

Tested on: Chaperonin Mm-Cpn (Methanococcus maripaludis)
Assay: Inhibitors of TCP-1 ring complex (TRiC) of Methanococcus maripaludis (MmCpn): qHTS; further: nearly all actives have a fitted effect of over 80% in size;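 on Potency: enzyme at 25 nM with ATP substrate at 10 µM during the reaction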
Conditions: purified Mm-Cpn ATPase, ADP Transcreener TR-FRET; activity, negative = inhibition: at the top concentration
Procedure, shortened: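 25 nM Mm-CPN + cpd, 10 min 37°C; + 10 uM ATP, 30 min 37°C; buffer 30 mM Tris pH 7.4, 100 mM KCl, 5 mM MgCl2, 1 mM DTT; Transcreener ADP HTRF detection 30 min RT.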
On the % scale 0 is the no-effect control and ±100 the full control effect; potency means the concentration at half of the fitted maximal effect.

Compound | Potency | activity, negative = inhibition
Cc1ccc2c(Cl)c(C(=O)NCC(c3ccco3)N3CCCC3)sc2c1 (configuration not stated) | inconclusive: 20 µM [inhibitor, single point] | –
CSc1nc(-c2ccc(Cl)cc2Cl)[nH]c(=O)c1C#N | – | inactive: -1.81%
Cc1oc2c(C)c3oc(=O)c(CCC(=O)O)c(C)c3cc2c1-c1ccccc1 | – | inactive: 0.215%
CN(C)c1nc(SCCOC(=O)Nc2ccccc2)nc(N(C)C)n1 | – | inactive: 0.442%
Cc1ccc(C(=O)OCC(=O)NNC(=O)COc2ccc(Cl)cc2)c(O)c1 | inconclusive: 14.1 µM [inhibitor, single point] | –
CCCC(C)NC(=O)CN(Cc1ccco1)S(=O)(=O)c1ccccc1 (configuration not stated) | inconclusive: 251 µM [inhibitor, partial curve, poor fit] | –
CC1(C2CC2)NC(=O)N(CC(=O)Nc2cc(S(=O)(=O)N3CCCCC3)ccc2Cl)C1=O (configuration not stated) | – | inactive: 3.29%
O=C(Nc1ccc2oc(-c3cccnc3)nc2c1)c1cccnc1 | inconclusive: 100 µM [inhibitor, single point] | –
N#Cc1cccc(NC(=O)CCN2C(=O)C3CCCCC3C2=O)c1 (configuration not stated) | inconclusive: 15.8 µM [inhibitor, single point] | –
C=CCN(CC=C)CCCOc1ccc(C)cc1OC | inconclusive: 89.1 µM [inhibitor, single point] | –
COc1ccc(C(=O)Nc2nc(-c3ccc(S(=O)(=O)N4CCOCC4)cc3)cs2)cc1 | inconclusive: 89.1 µM [inhibitor, single point] | –
COC(=O)C1(CC2CC(c3ccncc3)=NO2)CCN(C(=O)OC(C)(C)C)CC1 (configuration not stated) | inconclusive: 10 µM [inhibitor, single point] | –
CC(=O)Nc1ccc(S(=O)(=O)Nc2cc(S(=O)(=O)N3CCCCC3)ccc2O)cc1 | – | inactive: 0.905%
COc1ccc(-n2nc(C(=O)NCC(=O)NCc3ccco3)c3ccccc3c2=O)cc1Cl | inconclusive: 100 µM [inhibitor, single point] | –
CCc1ccc(NS(=O)(=O)c2ccc3[nH]cc(C(=O)N(C)Cc4ccco4)c(=O)c3c2)cc1 | – | inactive: 1.65%
COc1ccc(-c2cc(-c3ccccc3)c(C#N)c(SCC(=O)Nc3ncc(C)s3)n2)cc1 | inconclusive: 39.8 µM [inhibitor, partial curve, poor fit] | –
O=C(NC1CCCCCCC1)c1ccc(F)c(S(=O)(=O)N2CCOCC2)c1 | inconclusive: 50.1 µM [inhibitor, single point] | –
Cc1[nH]nc2c1C(=O)CC(C)(C)C2 | – | inactive: -0.273%
CNC(=O)c1c2c(nc3ccc(Br)cc13)CCCC2 | inconclusive: 1410 µM [inhibitor, partial curve, poor fit] | –
CCOc1ccc(C(=O)OCCN(C)C)cc1 | – | inactive: -0.911%
NC(=S)N/N=C/c1ccccc1OC(=O)/C=C/c1ccccc1 | inconclusive: 14.1 µM [inhibitor, single point] | –
COc1ccccc1NC(=S)NCc1cccs1 | – | inactive: 0.253%
CN(C)S(=O)(=O)c1cccc(NC(=S)N/N=C/c2ccc(O)c(O)c2O)c1 | – | inactive: 0.15%
CCOC(=O)c1sc(NC(=O)c2c(OC)cccc2OC)nc1C | – | inactive: -3.37%

In a second layout: results already given.
Compound	Potency	activity, negative = inhibition
CSc1nc(-c2ccc(Cl)cc2Cl)[nH]c(=O)c1C#N	–	inactive: -1.81%
Cc1oc2c(C)c3oc(=O)c(CCC(=O)O)c(C)c3cc2c1-c1ccccc1	–	inactive: 0.215%
CN(C)c1nc(SCCOC(=O)Nc2ccccc2)nc(N(C)C)n1	–	inactive: 0.442%

Look-ups from the results shown:
Potency, NC(=S)N/N=C/c1ccccc1OC(=O)/C=C/c1ccccc1 reads inconclusive: 14.1 µM [inhibitor, single point]
Potency, COc1ccc(C(=O)Nc2nc(-c3ccc(S(=O)(=O)N4CCOCC4)cc3)cs2)cc1 reads inconclusive: 89.1 µM [inhibitor, single point]

Next compounds follow.

Compound | Potency | activity, negative = inhibition
O=C(O)c1cc(/C=C/C(=O)c2cc(F)ccc2O)c2c(c1)COCO2 | – | inactive: -1.08%
Cc1ccnc(NS(=O)(=O)Cc2ccccc2)c1 | – | inactive: -1.68%
CSc1nnc(Cc2sc(-c3ccccc3)nc2-c2ccccc2)o1 | inconclusive: 112 µM [inhibitor, single point] | –
CCOc1ccc(CN(C)C(=O)CCc2ccc(S(=O)(=O)N3CCCCCC3)cc2)cc1 | – | inactive: -4.06%
O=C(CN(Cc1cccs1)C(=O)CSc1nnc(COc2ccccc2)o1)NC1CCCCC1 | inconclusive: 100 µM [inhibitor, single point] | –
CCCc1nc2c(nnn2Cc2ccccc2Cl)c(=O)[nH]1 | inconclusive: 100 µM [inhibitor, single point] | –
CCOC(=O)c1cnc2c(Cl)cc(Cl)cc2c1NCCCN1CCOCC1 | inconclusive: 89.1 µM [inhibitor, single point] | –
CN(C)S(=O)(=O)c1cc(C(=O)Nc2ccccc2C(=O)NC2CC2)ccc1Cl | inconclusive: 89.1 µM [inhibitor, single point] | –
S=c1[nH]nc(-c2ccncc2)n1/N=C/C=C/c1ccco1 | – | inactive: -6.2%
COc1ccc(CSc2nnc3n(C)c(=O)c4c5c(sc4n23)CCCC5)cc1 | inconclusive: 89.1 µM [inhibitor, single point] | –
CC(Sc1cccc[n+]1[O-])C(=O)Nc1cc(Cl)c(Cl)cc1Cl (configuration not stated) | inconclusive: 56.2 µM [inhibitor, single point] | –
COc1ccc(CNC(=O)c2sc(=S)n(-c3ccccc3)c2N)cc1 | inconclusive: 282 µM [inhibitor, partial curve, poor fit] | –
O=C(CCc1ccccn1)N1CCCC(N2CCN(c3ccc(F)cc3)CC2)C1 (configuration not stated) | inconclusive: 14.1 µM [inhibitor, single point] | –
O=C(NCc1ccc(F)c(F)c1)C1CCC(=O)N(CC2CCCCC2)C1 (configuration not stated) | inconclusive: 63.1 µM [inhibitor, single point] | –
COc1cccc(CNc2ccc([N+](=O)[O-])c(NCC(=O)O)n2)c1 | inconclusive: 22.4 µM [inhibitor, single point] | –
CCN1CCCC1Cn1cnc2c([nH]c3cccc(Cl)c32)c1=O (configuration not stated) | – | inactive: -0.743%
COc1ccc(C(=O)NNC(=O)c2cc3cc([N+](=O)[O-])ccc3oc2=O)cc1OC | – | inactive: 0.897%
O=C(Nc1ccccc1C(=O)N1CCOCC1)c1ccc(Cl)cc1 | inconclusive: 50.1 µM [inhibitor, single point] | –
COc1ccc(C2CC(=O)Oc3cc(O)cc(O)c32)cc1 (configuration not stated) | inconclusive: 70.8 µM [inhibitor, single point] | –
CCC(C)NC(=O)CSC1=Nc2ccccc2C2=NC(CC(=O)NCc3ccccc3)C(=O)N12 (configuration not stated) | – | inactive: -0.216%
O=C(Nc1ccccc1C(=O)Nc1nnc(C(F)(F)F)s1)c1ccccc1Cl | – | inactive: -0.252%
CC(C)OC(=O)CSc1nc(N)c(C#N)c(-c2ccco2)c1C#N | inconclusive: 79.4 µM [inhibitor, partial curve, poor fit] | –
CC(C)(C)c1nc2scc(-c3ccc(Br)cc3)c2c(=O)o1 | inconclusive: 79.4 µM [inhibitor, single point] | –
CCOc1ccc(OCC)c(NC(=O)CSCCc2ccccn2)c1 | inconclusive: 14.1 µM [inhibitor, single point] | –

Compound | Potency | activity, negative = inhibition
CC(C)(C)C1=Nn2c(nnc2-c2ccccc2F)SC1 | – | inactive: 0.144%
Cc1nc2c(sc3nc(N4CCOCC4)c4c(c32)CC(C)(C)OC4)c(-c2ccc(Cl)cc2)c1C(=O)O | inconclusive: 79.4 µM [inhibitor, single point] | –
COc1ccc(-c2nnc(SCc3ccccc3F)o2)cc1 | – | inactive: 1.7%
COc1cccc(C(=O)O/N=C2\CCS(=O)(=O)c3sccc32)c1 | inconclusive: 100 µM [inhibitor, partial curve, poor fit] | –
O=C(CSc1ncnc2c1oc1ccccc12)c1cccs1 | inconclusive: 1260 µM [inhibitor, partial curve, poor fit] | –
CCOc1ccc2nc(SCC(=O)N3c4ccccc4Sc4ccccc43)c(C#N)cc2c1 | inconclusive: 89.1 µM [inhibitor, partial curve, poor fit] | –
Cc1cccc(NC(=S)NNC(=O)c2csc3c2CCCC3)c1 | – | inactive: 1.97%
CCSc1nc2sc3c(c2c(=O)n1-c1ccccc1)CCN(C)C3 | inconclusive: 100 µM [inhibitor, single point] | –
Cc1onc(-c2ccccc2)c1C(=O)N1CCc2ccccc21 | inconclusive: 28.2 µM [inhibitor, single point] | –
COc1ccc(-c2cc(C(=O)Nc3cccc(S(=O)(=O)NCc4ccco4)c3)c3ccccc3n2)cc1OC | inconclusive: 562 µM [inhibitor, partial curve, poor fit] | –
CCCn1c(N)c(N(CCOC)C(=O)/C=C/c2ccc(C(=O)OC)cc2)c(=O)[nH]c1=O | inconclusive: 100 µM [inhibitor, single point] | –
COc1ccc2c(c1OC)C(=O)N(c1cccc(NC(C)=O)c1)C2 | – | inactive: 0.911%
CC1(C)CC(=O)C([N+](=O)[O-])=C(NCCCC(=O)O)C1 | – | inactive: 4.22%
CS(=O)(=O)N(CC(=O)NCCSC1CCCCC1)c1ccccc1 | inconclusive: 44.7 µM [inhibitor, single point] | –
Cc1ccc(NC2=NC(c3ccco3)n3c(nc(C)cc3=O)N2)c(C)c1 (configuration not stated) | inconclusive: 79.4 µM [inhibitor, single point] | –
CCOC(=O)N1CCC(Nc2nc3ccccc3n3nnnc23)CC1 | – | inactive: 1.69%
CCC(=O)O/N=C(\N)c1ccc(Oc2cc(C)c(Cl)c(C)c2)c([N+](=O)[O-])c1 | – | inactive: 1.61%
COc1ccc(OCc2cc(C(=O)N3CCCCCCC3)no2)c(Cl)c1 | – | inactive: 0.879%
COCC(=O)n1nc(NCc2ccc(OC)cc2)nc1NCc1ccc(OC)cc1 | – | inactive: -0.692%
C/C(=N\NC(=O)c1cccc(N/N=C(\C)c2ccncc2)c1)c1ccncc1 | – | inactive: -0.0807%
CS(=O)(=O)c1ccc(N)cc1 | inconclusive: 50.1 µM [inhibitor, single point] | –
CC(C)CN(C(=O)c1cccc(S(=O)(=O)N2CCN(C)CC2)c1)C1CCS(=O)(=O)C1 (configuration not stated) | inconclusive: 20 µM [inhibitor, single point] | –
CC(C)(C)C(=O)NC(=S)Nc1ccc(C(F)(F)F)cc1 | inconclusive: 100 µM [inhibitor, single point] | –
CN(Cc1ccccc1F)C(=O)COc1ccc(C(=O)c2ccccc2)cc1 | inconclusive: 89.1 µM [inhibitor, single point] | –
